In article PMC10858845:
Where two headings read alike, the source gives them in different places. No constants are given. Whether binding was seen depends on the method and setting. In cells and extracts the contact can be indirect. Some binding calls cover weakened binding; strength is not graded here. Values belong to the molecule of their own block, whether it stands above or below them.

Amino acid sequences for entries named in this document (tags omitted).
UniProt P46937: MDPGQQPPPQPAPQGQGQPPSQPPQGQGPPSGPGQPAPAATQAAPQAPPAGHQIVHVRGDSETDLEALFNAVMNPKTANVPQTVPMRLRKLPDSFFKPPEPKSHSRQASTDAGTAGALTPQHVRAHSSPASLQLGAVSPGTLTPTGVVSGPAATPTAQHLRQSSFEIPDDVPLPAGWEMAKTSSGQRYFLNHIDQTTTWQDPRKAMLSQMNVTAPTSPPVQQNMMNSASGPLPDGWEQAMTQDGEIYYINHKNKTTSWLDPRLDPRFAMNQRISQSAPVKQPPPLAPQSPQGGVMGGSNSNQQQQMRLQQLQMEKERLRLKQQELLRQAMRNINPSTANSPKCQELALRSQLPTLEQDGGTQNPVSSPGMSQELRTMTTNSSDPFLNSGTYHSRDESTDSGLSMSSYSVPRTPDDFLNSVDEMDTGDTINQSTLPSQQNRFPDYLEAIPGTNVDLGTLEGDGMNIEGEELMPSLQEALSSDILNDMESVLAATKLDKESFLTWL
UniProt Q9GZV5: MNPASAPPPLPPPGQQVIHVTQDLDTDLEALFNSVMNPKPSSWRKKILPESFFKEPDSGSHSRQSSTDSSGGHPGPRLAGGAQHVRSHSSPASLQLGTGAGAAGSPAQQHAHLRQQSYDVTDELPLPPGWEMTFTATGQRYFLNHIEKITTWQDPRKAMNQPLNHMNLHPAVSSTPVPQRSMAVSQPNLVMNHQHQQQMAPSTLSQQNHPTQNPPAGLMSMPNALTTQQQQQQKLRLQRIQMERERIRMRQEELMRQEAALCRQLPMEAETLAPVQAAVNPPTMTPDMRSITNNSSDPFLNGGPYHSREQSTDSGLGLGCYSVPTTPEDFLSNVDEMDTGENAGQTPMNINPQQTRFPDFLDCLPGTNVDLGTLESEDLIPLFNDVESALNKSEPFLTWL
UniProt Q9Y2J4: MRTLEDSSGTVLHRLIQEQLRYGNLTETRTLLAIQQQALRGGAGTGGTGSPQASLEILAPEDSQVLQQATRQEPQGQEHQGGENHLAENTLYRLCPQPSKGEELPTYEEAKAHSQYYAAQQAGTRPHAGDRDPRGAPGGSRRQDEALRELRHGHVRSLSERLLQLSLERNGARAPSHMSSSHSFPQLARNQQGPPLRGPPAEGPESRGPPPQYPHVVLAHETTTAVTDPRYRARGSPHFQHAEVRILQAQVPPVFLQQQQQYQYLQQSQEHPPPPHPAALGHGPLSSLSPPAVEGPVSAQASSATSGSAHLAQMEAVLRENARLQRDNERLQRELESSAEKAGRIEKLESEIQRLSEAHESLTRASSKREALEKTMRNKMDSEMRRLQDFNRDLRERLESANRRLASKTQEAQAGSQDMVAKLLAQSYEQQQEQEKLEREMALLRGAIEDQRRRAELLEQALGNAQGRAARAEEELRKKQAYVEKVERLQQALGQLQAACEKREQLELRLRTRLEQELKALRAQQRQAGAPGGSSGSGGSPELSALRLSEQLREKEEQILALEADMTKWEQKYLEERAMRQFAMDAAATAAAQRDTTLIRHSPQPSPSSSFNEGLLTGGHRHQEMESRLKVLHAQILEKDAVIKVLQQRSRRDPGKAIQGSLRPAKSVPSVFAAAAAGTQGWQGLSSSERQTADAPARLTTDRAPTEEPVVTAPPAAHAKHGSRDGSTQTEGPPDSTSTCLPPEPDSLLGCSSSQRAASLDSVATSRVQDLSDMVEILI

Tests used:
Assay in all cases: co-IP; HUVEC, basal or treated with XAV939 (5 µM, 6 h); non-denaturing lysis buffer (20 mM Tris-HCl, 150 mM NaCl, 1 mM EDTA, 1 mM EGTA, 1% Triton X-100, pH 7.6); 500 µg protein with 1 µg primary antibody overnight at 4 °C, protein A/G magnetic beads 2 h; western blot
[1] = biological target: Yes-associated protein 1 (human (endogenous in HUVEC)) (UniProt P46937)
[2] = biological target: transcriptional coactivator with PDZ-binding motif (human (endogenous in HUVEC)) (UniProt Q9GZV5)
[3] = biological target: T1, vascular endothelial (VE)-cadherin (human (endogenous in HUVEC)) (UniProt P33151)
T1 sequence: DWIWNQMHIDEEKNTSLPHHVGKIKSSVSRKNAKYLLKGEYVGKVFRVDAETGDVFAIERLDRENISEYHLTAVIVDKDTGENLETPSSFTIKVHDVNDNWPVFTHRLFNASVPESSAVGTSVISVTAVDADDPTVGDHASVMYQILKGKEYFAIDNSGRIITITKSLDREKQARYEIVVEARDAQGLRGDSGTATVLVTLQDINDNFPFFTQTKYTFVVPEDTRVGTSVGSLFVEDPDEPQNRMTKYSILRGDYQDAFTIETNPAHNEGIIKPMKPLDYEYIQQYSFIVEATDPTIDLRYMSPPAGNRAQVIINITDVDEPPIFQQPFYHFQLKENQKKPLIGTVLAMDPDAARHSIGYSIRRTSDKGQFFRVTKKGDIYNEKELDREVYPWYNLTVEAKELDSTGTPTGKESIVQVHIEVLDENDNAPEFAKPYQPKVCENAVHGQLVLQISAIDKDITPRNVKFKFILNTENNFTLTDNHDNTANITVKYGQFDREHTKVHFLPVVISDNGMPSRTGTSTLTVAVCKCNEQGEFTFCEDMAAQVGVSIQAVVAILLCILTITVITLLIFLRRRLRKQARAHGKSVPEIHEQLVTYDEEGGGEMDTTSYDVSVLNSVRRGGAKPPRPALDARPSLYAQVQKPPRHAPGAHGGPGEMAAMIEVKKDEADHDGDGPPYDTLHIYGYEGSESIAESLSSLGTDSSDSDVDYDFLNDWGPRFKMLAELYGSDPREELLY

[4] = biological target: T2, vascular endothelial (VE)-cadherin (human (endogenous in HUVEC)), P33151; conditions: remark: other sources report otherwise
T2 chain: T1 sequence

[5] = biological target: Yes-associated protein 1 (human (endogenous in HUVEC)) (UniProt P46937); remark: listed apart in the source
[6] = biological target: T1, vascular endothelial (VE)-cadherin (human (endogenous in HUVEC)); remark: listed apart in the source

binding [1]: binds
binding [2]: binds
binding [3]: binds
Molecule: angiomotin-like 2 (from UniProt Q9Y2J4 1-779)

binding [4]: binds
B1: β-catenin, P35222 1-781 (protein)
chain: MATQADLMELDMAMEPDRKAAVSHWQQQSYLDSGIHSGATTTAPSLSGKGNPEEEDVDTSQVLYEWEQGFSQSFTQEQVADIDGQYAMTRAQRVRAAMFPETLDEGMQIPSTQFDAAHPTNVQRLAEPSQMLKHAVVNLINYQDDAELATRAIPELTKLLNDEDQVVVNKAAVMVHQLSKKEASRHAIMRSPQMVSAIVRTMQNTNDVETARCTAGTLHNLSHHREGLLAIFKSGGIPALVKMLGSPVDSVLFYAITTLHNLLLHQEGAKMAVRLAGGLQKMVALLNKTNVKFLAITTDCLQILAYGNQESKLIILASGGPQALVNIMRTYTYEKLLWTTSRVLKVLSVCSSNKPAIVEAGGMQALGLHLTDPSQRLVQNCLWTLRNLSDAATKQEGMEGLLGTLVQLLGSDDINVVTCAAGILSNLTCNNYKNKMMVCQVGGIEALVRTVLRAGDREDITEPAICALRHLTSRHQEAEMAQNAVRLHYGLPVVVKLLHPPSHWPLIKATVGLIRNLALCPANHAPLREQGAIPRLVQLLVRAHQDTQRRTSMGGTQQQFVEGVRMEEIVEGCTGALHILARDVHNRIVIRGLNTIPLFVQLLYSPIENIQRVAAGVLCELAQDKEAAEAIEAEGATAPLTELLHSRNEGVATYAAAVLFRMSEDKPQDYKKRLSVELTSSLFRTEPMAWNETADLGLDIGAQGEPLGYRQDDPSYRSFHSGGYGQDALGMDPMMEHEMGGHHPGADYPVDGLPDLGHAQDLMDGLPPGDSNQLAWFDTDL

binding [5]: binds
binding [6]: binds
B2: angiomotin-like 1 (protein, UniProt Q8IY63 1-956)
chain: MWRAKLRRGTCEPAVKGSPSACYSPSSPVQVLEDSTYFSPDFQLYSGRHETSALTVEATSSIREKVVEDPLCNFHSPNFLRISEVEMRGSEDAAAGTVLQRLIQEQLRYGTPTENMNLLAIQHQATGSAGPAHPTNNFSSTENLTQEDPQMVYQSARQEPQGQEHQVDNTVMEKQVRSTQPQQNNEELPTYEEAKAQSQFFRGQQQQQQQQGAVGHGYYMAGGTSQKSRTEGRPTVNRANSGQAHKDEALKELKQGHVRSLSERIMQLSLERNGAKQHLPGSGNGKGFKVGGGPSPAQPAGKVLDPRGPPPEYPFKTKQMMSPVSKTQEHGLFYGDQHPGMLHEMVKPYPAPQPVRTDVAVLRYQPPPEYGVTSRPCQLPFPSTMQQHSPMSSQTSSASGPLHSVSLPLPLPMALGAPQPPPAASPSQQLGPDAFAIVERAQQMVEILTEENRVLHQELQGYYDNADKLHKFEKELQRISEAYESLVKSTTKRESLDKAMRNKLEGEIRRLHDFNRDLRDRLETANRQLSSREYEGHEDKAAEGHYASQNKEFLKEKEKLEMELAAVRTASEDHRRHIEILDQALSNAQARVIKLEEELREKQAYVEKVEKLQQALTQLQSACEKREQMERRLRTWLERELDALRTQQKHGNGQPANMPEYNAPALLELVREKEERILALEADMTKWEQKYLEESTIRHFAMNAAATAAAERDTTIINHSRNGSYGESSLEAHIWQEEEEVVQANRRCQDMEYTIKNLHAKIIEKDAMIKVLQQRSRKDAGKTDSSSLRPARSVPSIAAATGTHSRQTSLTSSQLAEEKKEEKTWKGSIGLLLGKEHHEHASAPLLPPPPTSALSSIASTTAASSAHAKTGSKDSSTQTDKSAELFWPSMASLPSRGRLSTTPAHSPVLKHPAAKGTAEKLENSPGHGKSPDHRGRVSSLLHKPEFPDGEMMEVLI
